Publication PMC9985635
Results are given in words; binding and its absence hold for the method and conditions named. Binding seen in cells or lysates may run through a third protein. Some binding calls cover weakened binding; strength is not graded here. Blank lines part the entries; values can stand above or below the molecule they belong to.

Sequences of proteins named here, by UniProt entry; tags and fusion partners are left off.
UniProt Q04206: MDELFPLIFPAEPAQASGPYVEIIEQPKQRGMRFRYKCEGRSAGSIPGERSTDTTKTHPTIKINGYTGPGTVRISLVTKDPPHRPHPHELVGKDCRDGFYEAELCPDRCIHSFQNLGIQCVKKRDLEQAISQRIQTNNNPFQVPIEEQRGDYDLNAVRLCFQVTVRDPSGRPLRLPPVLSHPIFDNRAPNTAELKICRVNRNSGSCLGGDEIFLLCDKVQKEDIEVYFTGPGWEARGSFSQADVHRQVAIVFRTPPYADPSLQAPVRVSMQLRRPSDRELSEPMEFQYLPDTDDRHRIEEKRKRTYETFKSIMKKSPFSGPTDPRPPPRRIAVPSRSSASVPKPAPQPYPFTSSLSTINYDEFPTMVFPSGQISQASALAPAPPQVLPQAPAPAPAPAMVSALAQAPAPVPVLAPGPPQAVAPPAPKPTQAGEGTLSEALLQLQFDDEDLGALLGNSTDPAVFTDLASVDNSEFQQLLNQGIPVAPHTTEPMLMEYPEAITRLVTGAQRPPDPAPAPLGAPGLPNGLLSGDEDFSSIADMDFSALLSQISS

How the values were obtained:
[1] = molecular target: T1, RB, wild type (co-IPs of Supplementary Figs. 15J-M and 16L-P; overexpressed where stated) (UniProt P06400); assay: co-IP; cells with LKB1, CDK4 or RB constructs overexpressed (cell line and baits not shown), with or without palbociclib; Cell Lysis Buffer for Western & IP, antibody overnight at 4 °C, protein A/G agarose beads 2 h; immunoblot
T1 sequence: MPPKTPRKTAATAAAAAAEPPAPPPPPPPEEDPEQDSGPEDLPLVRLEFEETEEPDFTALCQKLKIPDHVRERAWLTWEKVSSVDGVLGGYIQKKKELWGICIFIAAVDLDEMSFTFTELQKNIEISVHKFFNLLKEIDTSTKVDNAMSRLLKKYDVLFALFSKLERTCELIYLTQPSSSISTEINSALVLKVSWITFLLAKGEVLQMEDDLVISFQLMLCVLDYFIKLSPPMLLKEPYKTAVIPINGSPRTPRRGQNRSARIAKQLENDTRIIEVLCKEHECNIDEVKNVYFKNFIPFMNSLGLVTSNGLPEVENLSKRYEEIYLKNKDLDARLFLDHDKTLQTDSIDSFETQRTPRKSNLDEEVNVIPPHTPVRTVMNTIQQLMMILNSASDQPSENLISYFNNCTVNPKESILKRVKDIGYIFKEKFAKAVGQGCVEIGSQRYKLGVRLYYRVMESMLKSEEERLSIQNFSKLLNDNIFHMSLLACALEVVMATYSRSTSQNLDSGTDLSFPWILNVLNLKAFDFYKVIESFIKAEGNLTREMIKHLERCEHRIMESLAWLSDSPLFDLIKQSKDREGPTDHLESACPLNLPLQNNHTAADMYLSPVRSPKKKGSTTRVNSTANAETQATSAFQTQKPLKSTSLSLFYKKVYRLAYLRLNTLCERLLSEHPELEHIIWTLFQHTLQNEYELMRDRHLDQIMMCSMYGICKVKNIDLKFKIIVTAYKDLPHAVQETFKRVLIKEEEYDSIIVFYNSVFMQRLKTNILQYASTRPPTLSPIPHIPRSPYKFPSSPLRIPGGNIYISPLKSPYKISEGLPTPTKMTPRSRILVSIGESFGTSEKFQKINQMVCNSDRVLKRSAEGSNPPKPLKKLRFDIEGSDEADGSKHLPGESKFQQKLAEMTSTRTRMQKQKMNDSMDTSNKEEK

[2] = molecular target: T2, LKB1 (H1299 cells expressing intact LKB1) (human (endogenous in H1299)) (UniProt Q15831); assay: co-IP; H1299 cells expressing intact LKB1; Cell Lysis Buffer for Western & IP, antibody overnight at 4 °C, protein A/G agarose beads 2 h; immunoblot
T2 sequence: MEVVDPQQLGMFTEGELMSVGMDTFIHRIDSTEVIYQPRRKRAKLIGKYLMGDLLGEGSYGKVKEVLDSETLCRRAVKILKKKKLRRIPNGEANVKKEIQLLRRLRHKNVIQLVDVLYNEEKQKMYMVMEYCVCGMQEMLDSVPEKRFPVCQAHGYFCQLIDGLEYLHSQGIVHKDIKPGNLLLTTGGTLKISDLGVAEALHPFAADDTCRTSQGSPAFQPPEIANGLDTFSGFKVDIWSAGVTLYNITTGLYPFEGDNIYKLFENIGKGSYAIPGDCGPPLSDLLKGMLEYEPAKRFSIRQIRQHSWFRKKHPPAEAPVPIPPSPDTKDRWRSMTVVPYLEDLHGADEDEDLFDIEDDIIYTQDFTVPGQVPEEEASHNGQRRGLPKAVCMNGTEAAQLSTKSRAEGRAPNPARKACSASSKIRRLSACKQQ

[3] = molecular target: T3, LKB1, wild type, overexpressed or reconstituted (co-IPs of Supplementary Figs. 15J-M and 16L-P) (UniProt Q15831); assay: co-IP; cells with LKB1, CDK4 or RB constructs overexpressed (cell line and baits not shown), with or without palbociclib; Cell Lysis Buffer for Western & IP, antibody overnight at 4 °C, protein A/G agarose beads 2 h; immunoblot
T3 sequence: T2 sequence

binding [1]: binds
Molecule: p65 (from UniProt Q04206 1-551)

binding [2]: binds
B1: retinoblastoma protein RB (H1299 cells) (protein, UniProt P06400 1-928)
chain: T1 sequence

binding [3]: binds
B2: RB, wild type (co-IPs of Supplementary Figs. 15J-M and 16L-P; overexpressed where stated) (protein, UniProt P06400 1-928)
chain: T1 sequence
